# From patent publication US10479791B2, “Heterocyclic compounds as ERK inhibitors” (CHANGZHOU JIEKAI PHARMATECH CO. LTD, priority 2015, dated 2019)
# Chains of the proteins cited; added tags and fusions are not shown.
# UniProt P28482, whole entry: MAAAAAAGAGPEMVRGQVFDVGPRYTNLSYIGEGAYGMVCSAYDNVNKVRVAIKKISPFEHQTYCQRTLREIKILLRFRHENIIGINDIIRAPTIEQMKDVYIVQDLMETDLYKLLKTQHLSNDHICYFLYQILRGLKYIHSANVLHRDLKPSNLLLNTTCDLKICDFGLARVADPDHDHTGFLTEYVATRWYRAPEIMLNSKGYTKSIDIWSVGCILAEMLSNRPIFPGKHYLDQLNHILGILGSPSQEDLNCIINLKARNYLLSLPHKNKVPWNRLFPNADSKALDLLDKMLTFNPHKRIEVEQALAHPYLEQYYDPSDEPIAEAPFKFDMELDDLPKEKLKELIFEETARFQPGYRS
# Some entries share one result that the patent states for a list of compounds.
# Target: T1, human ERK2 (Homo sapiens, UniProt P28482)
# T1 construct: recombinantly expressed as GST-tagged full-length protein purified from E. coli; GST; purchased Invitrogen PV3311; host or cells: E. coli
# Assay: LanthaScreen TR-FRET enzymatic assay
# Assay type: biochemical
# Settings: 20 ng/ml ERK2, 400 nM ATF2-GFP substrate, 5 μM ATP, one hour reaction
row,IC50 [nM],Compound
1,< 150,"O=C1c2cc(-c3n[nH]c4ncc(-c5ccccc5)cc34)cn2CCN1[C@H](CO)c1ccc(F)c(Cl)c1 [Compound 1, (S)-2-(1-(3-chloro-4-fluorophenyl)-2-hydroxyethyl)-7-(5-phenyl-1H-pyrazolo[3,4-b]pyridin-3-yl)-3,4-dihydropyrrolo[1,2-a]pyrazin-1(2H)-one]"
2,< 150,"C[C@H](c1cccc(Cl)c1)N1CCn2cc(-c3c[nH]c4ncc(-c5ccccc5)cc34)cc2C1=O [Compound 2, (R)-2-(1-(3-chlorophenyl)ethyl)-7-(5-phenyl-1H-pyrrolo[2,3-b]pyridin-3-yl)-3,4-dihydropyrrolo[1,2-a]pyrazin-1(2H)-one]"
3,< 150,"C[C@H](c1cccc(Cl)c1)N1CCn2cc(-c3n[nH]c4ncc(-c5ccccc5)cc34)cc2C1=O [Compound 3, (R)-2-(1-(3-chlorophenyl)ethyl)-7-(5-phenyl-1H-pyrazolo[3,4-b]pyridin-3-yl)-3,4-dihydropyrrolo[1,2-a]pyrazin-1(2H)-one]"
4,< 150,"O=C1c2cc(-c3c[nH]c4ncc(-c5ccccc5)cc34)cn2CCN1[C@H](CO)c1cccc(Cl)c1 [Compound 4, (S)-2-(1-(3-chlorophenyl)-2-hydroxyethyl)-7-(5-phenyl-1H-pyrrolo[2,3-b]pyridin-3-yl)-3,4-dihydropyrrolo[1,2-a]pyrazin-1(2H)-one]"
5,< 150,"Cc1cnc(Nc2ccc(F)cc2Cl)nc1-c1cc2n(c1)CCN([C@H](CO)c1cccc(Cl)c1)C2=O [Compound 5, (S)-7-(2-((2-chloro-4-fluorophenyl)amino)-5-methylpyrimidin-4-yl)-2-(1-(3-chlorophenyl)-2-hydroxyethyl)-3,4-dihydropyrrolo [1,2-a]pyrazin-1(2H)-one]"
6,< 150,"Cc1cnc(Nc2ccc(F)cc2Cl)nc1-c1cc2n(c1)CCN([C@H](C)c1cccc(Cl)c1)C2=O [Compound 6, (R)-7-(2-((2-chloro-4-fluorophenyl)amino)-5-methylpyrimidin-4-yl)-2-(1-(3-chlorophenyl)ethyl)-3,4-dihydropyrrolo [1,2-a]pyrazin-1(2H)-one]"
7,< 150,"Cc1cnc(Nc2ccc(F)cc2Cl)nc1-c1cc2n(c1)CCCN([C@H](CO)c1cccc(Cl)c1)C2=O [Compound 7, (S)-8-(2-((2-chloro-4-fluorophenyl)amino)-5-methylpyrimidin-4-yl)-2-(1-(3-chlorophenyl)-2-hydroxyethyl)-2,3,4,5-tetrahydro-1H-pyrrolo[1,2-a][1,4] diazepin-1-one]"
8,< 150,"Cc1cnc(Nc2ccc(F)cc2Cl)nc1-c1cc2n(c1)CCN([C@H](CO)c1ccc(Cl)cc1)C2=O [Compound 8, (S)-7-(2-((2-chloro-4-fluorophenyl)amino)-5-methylpyrimidin-4-yl)-2-(1-(4-chlorophenyl)-2-hydroxyethyl)-3,4-dihydropyrrolo [1,2-a]pyrazin-1(2H)-one]"
9,< 150,"Cc1cnc(Nc2ccc(F)cc2Cl)nc1-c1cc2n(c1)CCN([C@H](CO)c1cccc(F)c1)C2=O [Compound 9, (S)-7-(2-((2-chloro-4-fluorophenyl)amino)-5-methylpyrimidin-4-yl)-2-(1-(3-fluorophenyl)-2-hydroxyethyl)-3,4-dihydropyrrolo [1,2-a]pyrazin-1(2H)-one]"
10,< 150,"Cc1cnc(Nc2ccc(F)cc2Cl)nc1-c1cc2n(c1)CCN([C@H](CO)c1ccc(F)cc1)C2=O [Compound 10, (S)-7-(2-((2-chloro-4-fluorophenyl)amino)-5-methylpyrimidin-4-yl)-2-(1-(4-fluorophenyl)-2-hydroxyethyl)-3,4-dihydropyrrolo [1,2-a]pyrazin-1(2H)-one]"
11,< 150,"Cc1cnc(Nc2ccc(N3CCNCC3)cc2Cl)nc1-c1cc2n(c1)CCN([C@H](CO)c1cccc(Cl)c1)C2=O [Compound 11, (S)-7-(2-((2-chloro-4-(piperazin-1-yl)phenyl)amino)-5-methylpyrimidin-4-yl)-2-(1-(3-chlorophenyl)-2-hydroxyethyl)-3,4-dihydropyrrolo [1,2-a]pyrazin-1(2H)-one]"
12,< 150,"Cc1cnc(Nc2ccc(C3CCNCC3)cc2Cl)nc1-c1cc2n(c1)CCN([C@H](CO)c1cccc(Cl)c1)C2=O [Compound 12, (S)-7-(2-((2-chloro-4-(piperidin-4-yl)phenyl)amino)-5-methylpyrimidin-4-yl)-2-(1-(3-chlorophenyl)-2-hydroxyethyl)-3,4-dihydropyrrolo [1,2-a]pyrazin-1(2H)-one]"
13,< 150,"Cc1cnc(Nc2ccc(C3CCN(C(C)C)CC3)cc2Cl)nc1-c1cc2n(c1)CCN([C@H](CO)c1cccc(Cl)c1)C2=O [Compound 13, (S)-7-(2-((2-chloro-4-(1-isopropylpiperidin-4-yl)phenyl)amino)-5-methylpyrimidin-4-yl)-2-(1-(3-chlorophenyl)-2-hydroxyethyl)-3,4-dihydropyrrolo [1,2-a]pyrazin-1(2H)-one]"
14,< 150,"Cc1cnc(Nc2ccc(C3CCN(S(C)(=O)=O)CC3)cc2Cl)nc1-c1cc2n(c1)CCN([C@H](CO)c1cccc(Cl)c1)C2=O [Compound 14, (S)-7-(2-((2-chloro-4-(1-(methylsulfonyl)piperidin-4-yl)phenyl)amino)-5-methylpyrimidin-4-yl)-2-(1-(3-chlorophenyl)-2-hydroxyethyl)-3,4-dihydropyrrolo [1,2-a]pyrazin-1(2H)-one]"
15,< 150,"Cc1cnc(Nc2ccc(N3CCN(C(C)C)CC3)cc2Cl)nc1-c1cc2n(c1)CCN([C@H](CO)c1cccc(Cl)c1)C2=O [Compound 15, (S)-7-(2-((2-chloro-4-(4-isopropylpiperazin-1-yl)phenyl)amino)-5-methylpyrimidin-4-yl)-2-(1-(3-chlorophenyl)-2-hydroxyethyl)-3,4-dihydropyrrolo [1,2-a]pyrazin-1(2H)-one]"
16,< 150,"Cc1cnc(Nc2ccc(N3CCN(S(C)(=O)=O)CC3)cc2Cl)nc1-c1cc2n(c1)CCN([C@H](CO)c1cccc(Cl)c1)C2=O [Compound 16, (S)-7-(2-((2-chloro-4-(4-(methylsulfonyl)piperazin-1-yl)phenyl)amino)-5-methylpyrimidin-4-yl)-2-(1-(3-chlorophenyl)-2-hydroxyethyl)-3,4-dihydropyrrolo [1,2-a]pyrazin-1(2H)-one]"
17,< 150,"Cc1cnc(Nc2ccc(F)cc2)nc1-c1cc2n(c1)CCN([C@H](CO)c1cccc(Cl)c1)C2=O [Compound 17, (S)-2-(1-(3-chlorophenyl)-2-hydroxyethyl)-7-(2-((4-fluorophenyl)amino)-5-methylpyrimidin-4-yl)-3,4-dihydropyrrolo [1,2-a]pyrazin-1(2H)-one]"
18,< 150,Cc1cnc(NC2CCOCC2)nc1-c1cc2n(c1)CCN([C@H](CO)c1cccc(Cl)c1)C2=O [Compound 18]
19,< 150,"Cc1cnc(NC2CCOCC2)nc1-c1cc2n(c1)CCN(C(c1ccc(Cl)c(F)c1)c1cnn(C)c1)C2=O (stereo not drawn) [Compound 19, 2-((4-chloro-3-fluorophenyl)(1-methyl-1H-pyrazol-4-yl)methyl)-7-(5-methyl-2-((tetrahydro-2H-pyran-4-yl)amino)pyrimidin-4-yl)-3,4-dihydropyrrolo [1,2-a]pyrazin-1(2H)-one]"
20,< 150,"Cc1cnc(NC2CCCCC2)nc1-c1cc2n(c1)CCN([C@H](CO)c1cccc(Cl)c1)C2=O [Compound 20, (S)-2-(1-(3-chlorophenyl)-2-hydroxyethyl)-7-(2-(cyclohexylamino)-5-methylpyrimidin-4-yl)-3,4-dihydropyrrolo [1,2-a]pyrazin-1(2H)-one]"
21,< 150,"Cc1cnc(NC2CCN(S(C)(=O)=O)CC2)nc1-c1cc2n(c1)CCN([C@H](CO)c1cccc(Cl)c1)C2=O [Compound 21, (S)-2-(1-(3-chlorophenyl)-2-hydroxyethyl)-7-(5-methyl-2-((1-(methylsulfonyl)piperidin-4-yl)amino)pyrimidin-4-yl)-3,4-dihydropyrrolo [1,2-a]pyrazin-1(2H)-one]"
